# Source: the supplement of paper PMC8728848
# Some of the results follow.
# Key:
# Assay in all cases: glycan array binding signal (z-score within array); higher = stronger binding
# Conditions in all cases: glycan notation: IUPAC condensed, linker removed
# [1] = molecular target: Neu5Ac(a2-3)Gal(b1-3)GlcNAc(b1-2)Man
# In short: (§1)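 Columns mapping to the same glycan were averaged after glycan names were converted to IUPAC-condensed notation. The data come from 3228 arrays in the Consortium for Functional Glycomics database, limited to those with an available protein sequence. Binding is reported as a within-array Z-score averaged across arrays of one protein sequence and across linkers.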
# [2] = molecular target: Neu5Ac(a2-3)Gal(b1-3)GlcNAc(b1-2)Man(a1-3)[GlcNAc(b1-4)][Neu5Ac(a2-3)Gal(b1-3)GlcNAc(b1-2)Man(a1-6)]Man(b1-4)GlcNAc(b1-4)GlcNAc
# In short: as §1
# [3] = molecular target: Neu5Ac(a2-3)Gal(b1-3)GlcNAc(b1-2)Man(a1-3)[Neu5Ac(a2-3)Gal(b1-3)GlcNAc(b1-2)Man(a1-6)]Man(b1-4)GlcNAc(b1-4)GlcNAc
# In short: as §1
# [4] = molecular target: Neu5Ac(a2-3)Gal(b1-3)GlcNAc(b1-3)Gal(b1-3)GlcNAc
# In short: as §1
# [5] = molecular target: Neu5Ac(a2-3)Gal(b1-3)GlcNAc(b1-3)Gal(b1-4)GlcNAc
# In short: as §1
# [6] = molecular target: Neu5Ac(a2-3)Gal(b1-3)GlcNAc(b1-3)GalNAc
# In short: as §1
# [7] = molecular target: Neu5Ac(a2-3)Gal(b1-3)GlcNAc(b1-4)Gal(b1-4)Glc
# In short: as §1
# [8] = molecular target: Neu5Ac(a2-3)Gal(b1-3)GlcNAc(b1-6)GalNAc
# In short: as §1
# [9] = molecular target: Neu5Ac(a2-3)Gal(b1-3)GlcNAc6S
# In short: as §1
# [10] = molecular target: Neu5Ac(a2-3)Gal(b1-3)[Fuc(a1-4)]GlcNAc
# In short: as §1
# [11] = molecular target: Neu5Ac(a2-3)Gal(b1-3)[Fuc(a1-4)]GlcNAc(b1-3)Gal(b1-3)[Fuc(a1-4)]GlcNAc
# In short: as §1
# [12] = molecular target: Neu5Ac(a2-3)Gal(b1-3)[Fuc(a1-4)]GlcNAc(b1-3)Gal(b1-4)[Fuc(a1-3)]GlcNAc
# In short: as §1
# [13] = molecular target: Neu5Ac(a2-3)Gal(b1-3)[GlcNAc(b1-6)]GalNAc
# In short: as §1
# [14] = molecular target: Neu5Ac(a2-3)Gal(b1-3)[Neu5Ac(a2-6)]GalNAc
# In short: as §1
# [15] = molecular target: Neu5Ac(a2-3)Gal(b1-3)[Neu5Ac(a2-6)]GlcNAc(b1-3)[Fuc(a1-3)[Gal(b1-4)]GlcNAc(b1-6)]Gal(b1-4)Glc
# In short: as §1
# [16] = molecular target: Neu5Ac(a2-3)Gal(b1-3)]Neu5Ac(a2-3)Gal(b1-4)]GlcNAc
# In short: as §1
# Neu5Ac(a2-3)Gal(b1-4)Glc = molecular target: Neu5Ac(a2-3)Gal(b1-4)Glc
# In short: as §1
# [17] = molecular target: Neu5Ac(a2-3)Gal(b1-4)GlcNAc
# In short: as §1
# [18] = molecular target: Neu5Ac(a2-3)Gal(b1-4)GlcNAc(b1-2)Man
# In short: as §1
# [19] = molecular target: Neu5Ac(a2-3)Gal(b1-4)GlcNAc(b1-2)Man(a1-3)[GlcNAc(b1-4)][Neu5Ac(a2-3)Gal(b1-4)GlcNAc(b1-2)Man(a1-6)]Man(b1-4)GlcNAc(b1-4)GlcNAc
# In short: as §1
# [20] = molecular target: Neu5Ac(a2-3)Gal(b1-4)GlcNAc(b1-2)Man(a1-3)[Neu5Ac(a2-3)Gal(b1-4)GlcNAc(b1-2)Man(a1-6)]Man(b1-4)GlcNAc(b1-4)GlcNAc
# In short: as §1
# [21] = molecular target: Neu5Ac(a2-3)Gal(b1-4)GlcNAc(b1-2)Man(a1-3)[Neu5Ac(a2-3)Gal(b1-4)GlcNAc(b1-2)Man(a1-6)]Man(b1-4)GlcNAc(b1-4)[Fuc(a1-6)]GlcNAc
# In short: as §1
# [22] = molecular target: Neu5Ac(a2-3)Gal(b1-4)GlcNAc(b1-2)Man(a1-3)[Neu5Ac(a2-6)Gal(b1-4)GlcNAc(b1-2)Man(a1-6)]Man(b1-4)GlcNAc(b1-4)GlcNAc
# In short: as §1
# [23] = molecular target: Neu5Ac(a2-3)Gal(b1-4)GlcNAc(b1-2)[Neu5Ac(a2-3)Gal(b1-4)GlcNAc(b1-4)]Man(a1-3)[GlcNAc(b1-4)][Neu5Ac(a2-3)Gal(b1-4)GlcNAc(b1-2)[Neu5Ac(a2-3)Gal(b1-4)GlcNAc(b1-6)]Man(a1-6)]Man(b1-4)GlcNAc(b1-4)GlcNAc
# In short: as §1
# [24] = molecular target: Neu5Ac(a2-3)Gal(b1-4)GlcNAc(b1-2)[Neu5Ac(a2-3)Gal(b1-4)GlcNAc(b1-4)]Man(a1-3)[GlcNAc(b1-4)][Neu5Ac(a2-3)Gal(b1-4)GlcNAc(b1-4)Man(a1-6)]Man(b1-4)GlcNAc(b1-4)GlcNAc
# In short: as §1
# [25] = molecular target: Neu5Ac(a2-3)Gal(b1-4)GlcNAc(b1-2)[Neu5Ac(a2-3)Gal(b1-4)GlcNAc(b1-6)]Man(a1-6)[Neu5Ac(a2-3)Gal(b1-4)GlcNAc(b1-2)Man(a1-3)]Man(b1-4)GlcNAc(b1-4)GlcNAc
# In short: as §1
# [26] = molecular target: Neu5Ac(a2-3)Gal(b1-4)GlcNAc(b1-2)[Neu5Ac(a2-3)Gal(b1-4)GlcNAc(b1-6)]Man(a1-6)[Neu5Ac(a2-3)Gal(b1-4)GlcNAc(b1-2)Man(a1-3)][GlcNAc(b1-4)]Man(b1-4)GlcNAc(b1-4)GlcNAc
# In short: as §1
# [27] = molecular target: Neu5Ac(a2-3)Gal(b1-4)GlcNAc(b1-3)Gal
# In short: as §1
# [28] = molecular target: Neu5Ac(a2-3)Gal(b1-4)GlcNAc(b1-3)Gal(b1-3)GlcNAc
# In short: as §1
# [29] = molecular target: Neu5Ac(a2-3)Gal(b1-4)GlcNAc(b1-3)Gal(b1-4)GlcNAc
# In short: as §1
# [30] = molecular target: Neu5Ac(a2-3)Gal(b1-4)GlcNAc(b1-3)Gal(b1-4)GlcNAc(b1-2)Man(a1-3)[Neu5Ac(a2-3)Gal(b1-4)GlcNAc(b1-3)Gal(b1-4)GlcNAc(b1-2)Man(a1-6)]Man(b1-4)GlcNAc(b1-4)GlcNAc
# In short: as §1
# [31] = molecular target: Neu5Ac(a2-3)Gal(b1-4)GlcNAc(b1-3)Gal(b1-4)GlcNAc(b1-3)Gal(b1-4)GlcNAc
# In short: as §1
# [32] = molecular target: Neu5Ac(a2-3)Gal(b1-4)GlcNAc(b1-3)Gal(b1-4)GlcNAc(b1-3)Gal(b1-4)GlcNAc(b1-2)Man(a1-3)[Neu5Ac(a2-3)Gal(b1-4)GlcNAc(b1-3)Gal(b1-4)GlcNAc(b1-3)Gal(b1-4)GlcNAc(b1-2)Man(a1-6)]GalNAc
# In short: as §1
# [33] = molecular target: Neu5Ac(a2-3)Gal(b1-4)GlcNAc(b1-3)Gal(b1-4)GlcNAc(b1-3)GalNAc
# In short: as §1
# [34] = molecular target: Neu5Ac(a2-3)Gal(b1-4)GlcNAc(b1-3)Gal(b1-4)GlcNAc(b1-3)[Neu5Ac(a2-3)Gal(b1-4)GlcNAc(b1-3)Gal(b1-4)GlcNAc(b1-6)]GalNAc
# In short: as §1
# [35] = molecular target: Neu5Ac(a2-3)Gal(b1-4)GlcNAc(b1-3)Gal(b1-4)GlcNAc(b1-6)[Gal(b1-3)]GalNAc
# In short: as §1
# [36] = molecular target: Neu5Ac(a2-3)Gal(b1-4)GlcNAc(b1-3)Gal(b1-4)[Fuc(a1-3)]GlcNAc
# In short: as §1
# [37] = molecular target: Neu5Ac(a2-3)Gal(b1-4)GlcNAc(b1-3)GalNAc
# In short: as §1
binder,measurement,setting,value
"DC-Sign-R (Homo sapiens), Q9H2X3 (protein) MSDSKEPRVQQLGLLEEDPTTSGIRLFPRDFQFQQIHGHKSSTGCLGHGALVLQLLSFMLLAGVLVAILVQVSKVPSSLSQEQSEQDAIYQNLTQLKAAVGELSEKSKLQEIYQELTQLKAAVGELPEKSKLQEIYQELTRLKAAVGELPEKSKLQEIYQELTRLKAAVGELPEKSKLQEIYQELTRLKAAVGELPEKSKLQEIYQELTELKAAVGELPEKSKLQEIYQELTQLKAAVGELPDQSKQQQIYQELTDLKTAFERLCRHCPKDWTFFQGNCYFMSNSQRNWHDSVTACQEVRAQLVVIKTAEEQNFLQLQTSRSNRFSWMGLSDLNQEGTWQWVDGSPLSPSFQRYWNSGEPNNSGNEDCAEFSGSGWNDNRCDVDNYWICKKPAACFRDE",glycan array binding signal (z-score),[1],0.07
same,glycan array binding signal (z-score),[2],1.2
same,glycan array binding signal (z-score),[3],-0.611
same,glycan array binding signal (z-score),[4],-0.501
same,glycan array binding signal (z-score),[5],-0.77
same,glycan array binding signal (z-score),[6],-0.193
same,glycan array binding signal (z-score),[7],0.657
same,glycan array binding signal (z-score),[8],-0.39
same,glycan array binding signal (z-score),[9],-0.544
same,glycan array binding signal (z-score),[10],-0.063
same,glycan array binding signal (z-score),[11],-0.121
same,glycan array binding signal (z-score),[12],-0.503
same,glycan array binding signal (z-score),[13],2.7
same,glycan array binding signal (z-score),[14],-0.105
same,glycan array binding signal (z-score),[15],-0.178
same,glycan array binding signal (z-score),[16],-0.405
same,glycan array binding signal (z-score),Neu5Ac(a2-3)Gal(b1-4)Glc,-0.705
same,glycan array binding signal (z-score),[17],-0.569
same,glycan array binding signal (z-score),[18],-0.09
same,glycan array binding signal (z-score),[19],-0.036
same,glycan array binding signal (z-score),[20],-0.881
same,glycan array binding signal (z-score),[21],-0.313
same,glycan array binding signal (z-score),[22],-0.873
same,glycan array binding signal (z-score),[23],2.27
same,glycan array binding signal (z-score),[24],1.59
same,glycan array binding signal (z-score),[25],1.06
same,glycan array binding signal (z-score),[26],-0.749
same,glycan array binding signal (z-score),[27],-0.358
same,glycan array binding signal (z-score),[28],-0.629
same,glycan array binding signal (z-score),[29],-0.517
same,glycan array binding signal (z-score),[30],1.11
same,glycan array binding signal (z-score),[31],-0.733
same,glycan array binding signal (z-score),[32],0.027
same,glycan array binding signal (z-score),[33],2.49
same,glycan array binding signal (z-score),[34],1.82
same,glycan array binding signal (z-score),[35],-0.037
same,glycan array binding signal (z-score),[36],-0.066
same,glycan array binding signal (z-score),[37],1.54

# Rewritten tab-delimited: entries from further up
binder	measurement	setting	value
DC-Sign-R (Homo sapiens), Q9H2X3 (protein) MSDSKEPRVQQLGLLEEDPTTSGIRLFPRDFQFQQIHGHKSSTGCLGHGALVLQLLSFMLLAGVLVAILVQVSKVPSSLSQEQSEQDAIYQNLTQLKAAVGELSEKSKLQEIYQELTQLKAAVGELPEKSKLQEIYQELTRLKAAVGELPEKSKLQEIYQELTRLKAAVGELPEKSKLQEIYQELTRLKAAVGELPEKSKLQEIYQELTELKAAVGELPEKSKLQEIYQELTQLKAAVGELPDQSKQQQIYQELTDLKTAFERLCRHCPKDWTFFQGNCYFMSNSQRNWHDSVTACQEVRAQLVVIKTAEEQNFLQLQTSRSNRFSWMGLSDLNQEGTWQWVDGSPLSPSFQRYWNSGEPNNSGNEDCAEFSGSGWNDNRCDVDNYWICKKPAACFRDE	glycan array binding signal (z-score)	[22]	-0.873
same	glycan array binding signal (z-score)	[23]	2.27
same	glycan array binding signal (z-score)	[24]	1.59
same	glycan array binding signal (z-score)	[25]	1.06
same	glycan array binding signal (z-score)	[26]	-0.749
same	glycan array binding signal (z-score)	[27]	-0.358
same	glycan array binding signal (z-score)	[28]	-0.629
same	glycan array binding signal (z-score)	[29]	-0.517
same	glycan array binding signal (z-score)	[30]	1.11
same	glycan array binding signal (z-score)	[31]	-0.733
